According to patent US20070020269A1 (published 2007):
These are yes or no findings as the source states them, for the method shown. For part of these data: In cells and extracts the contact can be indirect. Some binding calls cover weakened binding; strength is not graded here. Sequences can lack the tags named with a protein.

Amino acid sequences for entries named in this document (tags omitted). A change or cut given only in a name is not applied to a line headed by its entry. Residues count along the entry.
UniProt P38936: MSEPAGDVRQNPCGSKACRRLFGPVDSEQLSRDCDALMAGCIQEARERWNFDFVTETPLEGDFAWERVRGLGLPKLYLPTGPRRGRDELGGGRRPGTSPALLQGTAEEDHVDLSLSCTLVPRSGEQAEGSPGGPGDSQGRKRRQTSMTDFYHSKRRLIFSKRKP
p21-N: residues 1-89 of P38936
endogenous p21: residues 2-164 of P38936
p21-D1: residues 20-164 of P38936
p21-D2: residues 40-164 of P38936
UniProt P30281: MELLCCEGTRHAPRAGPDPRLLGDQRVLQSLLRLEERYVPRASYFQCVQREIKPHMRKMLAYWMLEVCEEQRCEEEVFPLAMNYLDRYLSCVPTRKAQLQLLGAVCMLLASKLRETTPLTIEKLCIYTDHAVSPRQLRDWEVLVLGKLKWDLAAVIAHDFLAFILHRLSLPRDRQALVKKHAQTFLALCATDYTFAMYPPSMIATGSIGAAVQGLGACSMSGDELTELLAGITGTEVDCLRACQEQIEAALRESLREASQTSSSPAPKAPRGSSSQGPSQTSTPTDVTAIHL

Legend:
[1] = molecular target: p21 (positive clone of the yeast two-hybrid screen) (UniProt P38936); assay: Gal4 yeast two-hybrid screen of Hela, lymph and fetal brain libraries
[2] = molecular target: cyclin D3 (yeast two-hybrid clone) (UniProt P30281); assay: as above
[3] = molecular target: cyclin D3 (yeast two-hybrid clone) (UniProt P30281); assay: yeast two-hybrid, panel of cyclins
[4] = molecular target: endogenous p21 (UniProt P38936); assay: co-immunoprecipitation (anti-p21 IP, anti-flag blot), 293T cells transfected with RX50
[5] = molecular target: HA-cyclin D3 (UniProt P30281); assay: co-immunoprecipitation, 293T cells transfected with flag-RX50 and HA-cyclin D3
[6] = molecular target: myc-p21 (UniProt P38936); assay: co-immunoprecipitation, 293T cells co-transfected with flag-RX50 and myc-p21
[7] = molecular target: HA-cyclin D3 (UniProt P30281); assay: co-immunoprecipitation (anti-flag IP, anti-HA blot), 293T cells co-transfected with RX50, cyclin D3 and p21
[8] = molecular target: HA-cyclin D3 (UniProt P30281); assay: co-immunoprecipitation (anti-flag IP, anti-HA blot), 293T cells co-transfected with RX50 and cyclin D3
[9] = molecular target: myc-p21 (UniProt P38936); assay: co-immunoprecipitation (anti-myc IP, anti-flag blot), co-transfected 293T cells
[10] = molecular target: p21-D1 (UniProt P38936); assay: as above
[11] = molecular target: p21-D2 (UniProt P38936); assay: as above
[12] = molecular target: p21-N (UniProt P38936); assay: as above
[13] = molecular target: endogenous p21 (UniProt P38936); assay: co-immunoprecipitation
[14] = molecular target: HA-cyclin D3 (UniProt P30281); assay: co-immunoprecipitation
[15] = molecular target: HA-cyclin D3 (UniProt P30281); assay: co-immunoprecipitation, 293T cells transfected with flag-RX50, myc-p21 and HA-cyclin D3

Measured: binding

B1: RX50 bait (RX50 gene in modified fusion plasmid pGBKT7, Gal4 yeast two-hybrid system) (enzyme, not shown: large carriers)
chain: MHGYFGCNAAAEPGYSAFVGTPQICVTKFSTRNCQGMDSVIKPLDTIPEDKKVRVQRTQSTFDPFEKPANQVKRVHSENNACINFKTSSTGKESPKVRRHSSPSSPTSPKFGKADSYEKLEKLGEGSYAYVYKGKSKVNGKLVALKVIRLQEEEGTPFTAIREASIIKGLKHANIVLLHDIIHTKETLTLVFEYYHTDLCQYMDKHPGGLHPDNVKLFLFQLLRGLSYIHQRYILHRDLKPGNLLISDTGELKLADFGLAKAKSVPSHTTSNEVVYLWYRPPDVLLGSTEYSTCLDMWGVGCIFVEMIQGVAAFPGMKDIQDQLERIFLVLGTPNEDTWPGVHSLPHFKPERFTLYSSKNLRQAWNKLSYVNHAEDLASKLLQCSPKNRLSAQAALSHEYFSDLPPRLWELTDMSSIFTVPNVRLQPEAGESMRAFGKNNSYGKSLSNSKH
binds: [1] | [2] | [3]

B2: Flag-RX50 (enzyme)
chain: MHGYFGCNAAAEPGYSAFVGTPQICVTKFSTRNCQGMDSVIKPLDTIPEDKKVRVQRTQSTFDPFEKPANQVKRVHSENNACINFKTSSTGKESPKVRRHSSPSSPTSPKFGKADSYEKLEKLGEGSYAYVYKGKSKVNGKLVALKVIRLQEEEGTPFTAIREASIIKGLKHANIVLLHDIIHTKETLTLVFEYYHTDLCQYMDKHPGGLHPDNVKLFLFQLLRGLSYIHQRYILHRDLKPGNLLISDTGELKLADFGLAKAKSVPSHTTSNEVVYLWYRPPDVLLGSTEYSTCLDMWGVGCIFVEMIQGVAAFPGMKDIQDQLERIFLVLGTPNEDTWPGVHSLPHFKPERFTLYSSKNLRQAWNKLSYVNHAEDLASKLLQCSPKNRLSAQAALSHEYFSDLPPRLWELTDMSSIFTVPNVRLQPEAGESMRAFGKNNSYGKSLSNSKH
notes: Expressed in transfected 293T cells; also called RX50 protein; not shown: N-terminal flag-tag from modified pcDNA3.1
binds: [4] | [5] | [6] | [7] | [8] | [9] | [10] | [11] | [12] | [13] | [14] | [15]
